Laboratory results published in patent publication US20240269292A1.
Part of at least one peptide drawing is inferred or uncertain, most often the ends. Non-standard residues stand in square brackets, D forms with d. Residues, ends and D or L forms follow the SMILES beside them. *: point of attachment. Dmt = Cc1cc(O)cc(C)c1C[C@H](N)C(=O)O; X1 = CCCCCCCCCCCCCCCCCCO*

Experiments:
[1] = Spontaneous hydrolysis of prodrug in phosphate-buffered saline at 37° C. without esterase (HPLC); type: physicochemical
[2] = system: retinal pigment epithelium (RPE) cells; type: cell-based
Procedure: Cells are then treated with drug (or control phosphate-buffered saline (PBS) solution) and assayed for effects on mitochondrial dysfunction and other cellular changes.
Mitochondrial dysfunction is manifest as increased flavoprotein autofluorescence (upper panels) and as dysmorphology of the actin cytoskeleton (lower panels). […] EY005-stearyl was also preincubated with carboxyesterase (0.1 μg/mL) in separate media.
Mitochondrial dysfunction can be modeled using in vitro cell culture systems relevant to retinal disease. In one such system, retinal pigment epithelium (RPE) cells are cultured to post-confluence to establish a differentiated cell monolayer and are then assayed for mitochondrial dysfunction and effect of drugs for treatment of mitochondrial dysfunction (FIG. 5). In this model, mitochondrial dysfunction is induced by two exposures to nonlethal doses of hydroquinone (HQ) at day −3 and day 0. Hydroquinone (HQ), a well-known environmental toxicant ubiquitously present in Western lifestyle, is a biochemical inducer of mitochondrial dysfunction. When HQ is added to fully differentiated RPE cell cultures, HQ competes with mitochondrial ubiquinone, siphoning high-energy electrons from electron transport chain, which then reduces oxygen into superoxide, leading to cardiolipin peroxidation and mitochondrial dysfunction. Cells are then treated with a drug of interest (mitochondrial targeted peptide drug or a prodrug thereof) or control (phosphate-buffered saline (PBS) solution and assayed for effects on mitochondrial dysfunction, as measured by microscopy of flavoprotein autofluorescence (a measure of mitochondrial electron transport chain complex II decompensation) (FIG. 6).

[3] = Accelerated in vitro release assay with complexation agents in methyl laurate; type: physicochemical
Excerpt: In all cases, all EY005 was rapidly released, in some cases within hours, and in all cases by day 3.

[4] = system: animal models of wet AMD and retinal vein occlusion; settings: systemic administration; cited from earlier work
patients with dry AMD = settings: daily subcutaneous injection; cited from earlier work
[5] = 5 μM, HQ-exposed RPE cells, at least 3 replicates

Row | SMILES | time for ester bond cleavage by hydrolysis [1] [h] | cleavage of EY005-stearyl prodrug to EY005 MTT after 6 hours ([1]; 6 hours) | potency on actin cytoskeletal dysmorphology relative to native EY005 peptide [2, 5] | potency on flavoprotein autofluorescence (FP-AF) relative to native EY005 peptide [2, 5] | reversal of HQ-induced mitochondrial dysfunction (flavoprotein autofluorescence, actin cytoskeleton) at 5 μM ([2]; HQ-exposed RPE cells with endogenous esterases) | release of EY005, other complexation agents ([3]; formulations with other complexation agents) | release rate of EY005, magnesium stearate and albumin in the same formulation ([3]; magnesium stearate and albumin both) | release of EY005 into the media, no complexation agent ([3]; no complexation agent) | release of EY005 into the media, silica microbeads ([3]; silica microbeads) | efficacy in animal models of wet AMD and retinal vein occlusion [4] | low-luminance visual acuity (patients with dry AMD) | mitochondrial structure at the ellipsoid zone of the outer neurosensory retina (patients with dry AMD)
1 | CCCCCCCCCCCCCCCCCCOC(=O)[C@H](Cc1ccccc1)NC(=O)[C@H](CCCCN)NC(=O)[C@H](Cc1c(C)cc(O)cc1C)NC(=O)[C@H](N)CCCNC(=N)N [EY005-stearyl, H-d-Arg-DMT-Lys-Phe(-O)-octadecyl] (H-[dR][Dmt]KF-X1) | ~36 | partial cleavage | potency equal to the native EY005 peptide | potency equal to the native EY005 peptide | effectively reversed HQ-induced mitochondrial dysfunction | sustained release of EY005 at varying rates | released at a rate intermediate between that of formulations using either complexation agent alone | rapid release of EY005 into the media | also shows rapid release of EY005 into the media |  |  | 
2 | Cc1cc(O)cc(C)c1C[C@H](NC(=O)[C@H](N)CCCNC(=N)N)C(=O)N[C@@H](CCCCN)C(=O)N[C@@H](Cc1ccccc1)C(N)=O [elamipretide, H-d-Arg-Dmt-Lys-Phe-NH2] (H-[dR][Dmt]KF-NH2) |  |  |  |  |  |  |  |  |  | partial efficacy | trend toward improved low-luminance visual acuity | preservation of mitochondrial structure at the ellipsoid zone
